{"source": "PubChem BioAssay AID540276", "about": "(National Center for Advancing Translational Sciences (NCATS), 2011)", "note": "In all, about 300,000 compounds went through this assay and about 5,400 (1.8%) were called active. This list was built around the results that the source calls inconclusive (neither active nor inactive); the mix of calls is not that of the screen. The call rests on the fitted dose curve; tested in HEK293 cells. A potency beside an inconclusive call is a rough fit, not a confirmed value. On the % scale 0 is the no-effect control and ±100 the full control effect; potency means the concentration at half of the fitted maximal effect.", "data": [{"assay": "qHTS for inhibitors of binding or entry into cells for Marburg Virus", "conditions": "Marburg virus pseudotyped entry inhibition, cell reporter; activity change, negative = inhibition: at 37.8 µM (top of the series) unless noted", "values": [{"smiles": "O=C(NCCN1C(=O)S/C(=C\\c2cccs2)C1=O)c1ccco1", "Potency": "inconclusive: 0.562 µM [activator, partial curve, poor fit]"}, {"smiles": "CCCCc1cc2c(cn1)=C(OC(=O)c1ccco1)C(C)(OC(=O)CC)C(=O)C=2", "note": "(stereo unspecified)", "Potency": "inconclusive: 0.0668 µM [activator, full curve, poor fit]"}, {"smiles": "CCOC(=O)C1(Cc2cccc(OC)c2)CCN(Cc2cc(OC)ccc2OC)CC1", "Potency": "inconclusive: 10 µM [inhibitor, partial curve, poor fit]"}, {"smiles": "COc1ccc(-c2c(NC(=O)c3ccco3)oc3c(C)cccc3c2=O)cc1OC", "Potency": "inconclusive: 1.41 µM [inhibitor, partial curve, poor fit]"}, {"smiles": "CCn1cc(C(C)NC(=O)Nc2ccccc2C(=O)OC)c(C)n1", "note": "(stereo unspecified)", "Potency": "inconclusive: 1.12 µM [inhibitor, full curve, poor fit]"}, {"smiles": "O=C1CCC2CCCCC2O1", "note": "(stereo unspecified)", "activity change, negative = inhibition": "inactive: -0.539%"}, {"smiles": "Cc1ccc(OCc2nc(C#N)c(NCc3ccc4c(c3)OCO4)o2)cc1", "Potency": "inconclusive: 20 µM [inhibitor, partial curve, poor fit]"}, {"smiles": "Cc1ccc2[nH]c(C(=O)NN=C3CCCCC3)c(-c3ccccc3)c2c1", "Potency": "inconclusive: 7.94 µM [inhibitor, partial curve, poor fit]"}, {"smiles": "CC(C)C1C(=O)N(Cc2cn(CCC3OCCCO3)nn2)CCS(=O)(=O)N1Cc1ccc(-c2ccc(Cl)cc2)cc1", "note": "(stereo unspecified)", "Potency": "inconclusive: 22.3 µM [inhibitor, partial curve, poor fit]"}, {"smiles": "Cc1nc(N)nc(COc2ccccc2)n1", "activity change, negative = inhibition": "inconclusive: 1.79% [activator]"}, {"smiles": "CCCCn1c(SCC(=O)N(CC)C2CCS(=O)(=O)C2)nnc1C(CC)N(C)C", "note": "(stereo unspecified)", "Potency": "inconclusive: 0.631 µM [inhibitor, full curve, poor fit]"}, {"smiles": "CSc1nc2ccc(Nc3nc(N4CCOCC4)nc(N4CCOCC4)n3)cc2s1", "Potency": "inconclusive: 14.6 µM [inhibitor, partial curve, poor fit]"}, {"smiles": "Cc1cc(C)cc(NC(=O)C2CCN(S(=O)(=O)c3c(C)noc3/C=C/c3ccco3)CC2)c1", "activity change, negative = inhibition": "inactive: 3.04% [at 46.1 µM]"}, {"smiles": "C/C(=N\\NC(=S)Nc1cccc(C)c1)c1cc2ccccc2o1", "Potency": "inconclusive: 11.2 µM [inhibitor, partial curve, poor fit]"}, {"smiles": "COCCN(CCOC)C(=O)c1cc2sc3ccccc3c2s1", "Potency": "inconclusive: 29.1 µM [inhibitor, single point]"}, {"smiles": "COc1ccc(N(C(=O)Cn2nnc3ccccc32)C2(C(=O)NC3CCCC3)CCCCC2)cc1", "Potency": "inconclusive: 13 µM [inhibitor, partial curve, poor fit]"}, {"smiles": "COc1ccc(CN2CC(=O)N(c3cc(Cl)ccc3C)C2=S)cc1OC", "Potency": "inconclusive: 6.31 µM [inhibitor, single point]"}, {"smiles": "COc1ccc(OC)c(S(=O)(=O)Nc2cccc(-c3ccc4nncn4n3)c2)c1", "Potency": "inconclusive: 12.6 µM [inhibitor, single point]"}, {"smiles": "Cc1cccc(NC(=S)N/N=C/c2ccc([N+](=O)[O-])s2)c1", "Potency": "inconclusive: 11.2 µM [inhibitor, partial curve, poor fit]"}, {"smiles": "COc1ccccc1NS(=O)(=O)c1cccc(C(=O)NC2CCN(Cc3ccccc3)CC2)c1", "Potency": "inconclusive: 8.91 µM [inhibitor, partial curve, poor fit]"}, {"smiles": "COc1cccc(-c2nc(NC(C)(C)C)c3ccccc3n2)c1O", "activity change, negative = inhibition": "inactive: -27.5%"}, {"smiles": "CCOc1ccc(-n2c(Cc3ccccc3)nnc2SCc2nc(-c3cccs3)no2)cc1", "activity change, negative = inhibition": "inactive: 4.28% [at 46.1 µM]"}, {"smiles": "CCNc1nc(SC(C)C(=O)Nc2ccccc2)nc(N2CCOCC2)n1", "note": "(stereo unspecified)", "activity change, negative = inhibition": "inactive: -3.65%"}, {"smiles": "Cc1ccc(C(=O)OCc2cn(-c3ccccc3)nn2)cc1", "Potency": "inconclusive: 35.5 µM [inhibitor, single point]"}, {"smiles": "Cc1ccc(-c2nc(-c3cc4cccc(OCc5cccc(F)c5)c4oc3=O)no2)cc1", "activity change, negative = inhibition": "inactive: 17.7% [at 46.1 µM]"}, {"smiles": "COc1cccc(/C=C/C(=O)OCC(=O)Nc2ccc(Cl)c(S(=O)(=O)N(C)C)c2)c1OC", "Potency": "inconclusive: 3.55 µM [inhibitor, partial curve, poor fit]"}, {"smiles": "CCN(CC)c1nc2c(s1)C(=O)CC(C)(C)C2", "activity change, negative = inhibition": "inactive: 13.3%"}, {"smiles": "CCOC(=O)N/N=C/c1ccc(F)cc1F", "Potency": "inconclusive: 2.31 µM [activator, full curve, poor fit]"}, {"smiles": "Cn1cc(C(=O)c2ccc(Cl)cc2Cl)cc1C(=O)N/N=C(\\N)COc1ccc(F)cc1", "Potency": "inconclusive: 22.4 µM [inhibitor, partial curve, poor fit]"}, {"smiles": "O=[N+]([O-])c1ccc(N2CCNCC2)cc1N1CCCCCC1", "Potency": "inconclusive: 17.8 µM [inhibitor, partial curve, poor fit]"}, {"smiles": "CCOc1ccccc1OCCN1CCC(Cc2ccccc2)CC1", "Potency": "inconclusive: 25.9 µM [inhibitor, single point]"}, {"smiles": "Cc1cccc(OCc2nnc(-c3ccccc3)o2)c1", "activity change, negative = inhibition": "inactive: 9.56% [at 46.1 µM]"}, {"smiles": "Nn1c(SCC(=O)Nc2ccccc2F)nnc1-c1cccnc1", "Potency": "inconclusive: 0.082 µM [inhibitor, partial curve, poor fit]"}, {"smiles": "Cc1cc(Br)cc(Br)c1OCC(=O)NNC(=O)Nc1ccccc1", "activity change, negative = inhibition": "inactive: -17.6% [at 46.1 µM]"}, {"smiles": "CC(C)CCNC(=O)NC(=O)COC(=O)/C=C/c1cccc([N+](=O)[O-])c1", "Potency": "inconclusive: 11.2 µM [inhibitor, partial curve, poor fit]"}, {"smiles": "COCCOCC(O)CN1CCN(c2ccc(C)cc2)CC1", "note": "(stereo unspecified)", "activity change, negative = inhibition": "inactive: 2.17%"}, {"smiles": "CCOC(=O)c1nn(-c2ccc(F)cc2)c(C)c1C(C)=O", "activity change, negative = inhibition": "inactive: -13.3%"}, {"smiles": "Cc1cc(C)c2nc(-c3ccccn3)cc(C(=O)NCc3ccco3)c2c1", "Potency": "inconclusive: 7.08 µM [inhibitor, partial curve]"}, {"smiles": "C=CC[n+]1c(-c2ccc(Cl)cc2Cl)csc1Nc1c(C)n(C)n(-c2ccccc2)c1=O", "Potency": "inconclusive: 7.08 µM [inhibitor, full curve, poor fit]"}, {"smiles": "COc1ccc(Cl)cc1NC(=O)CN(C)C(=O)c1ccc(N2CCCCC2)c([N+](=O)[O-])c1", "Potency": "inconclusive: 35.5 µM [inhibitor, single point]"}, {"smiles": "CCCCOc1ccc(-c2n[nH]c(=S)n2Cc2ccccc2)cc1", "Potency": "inconclusive: 6.31 µM [inhibitor, single point]"}]}]}
